Values from PubChem BioAssay AID504764 (Drosophila RNAi Screening Center, 2011).

Purpose: 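Genes whose knock-down alters Notch-dependent transcription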 (primary screen)
Cells: Drosophila Kc167 cells
Knock-down reagent: long dsRNA against Drosophila genes
Time to read-out: about 5 days (4 days dsRNA, then 24 h after transfection)
Conditions: transfection of constitutively active membrane-tethered Notch lacking the extracellular domain, read 24 h later
Measurement: 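Firefly luciferase from an E(spl)m3 reporter with active Notch, plus control-promoter and uninduced reporter wells for normalisation; unnormalised counts, duplicate wells a and b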
Direction: induced reporter light, run 1, well a and induced reporter light, run 1, well b: higher = more light from the Notch target reporter with active Notch; control promoter light, run 1, well a and control promoter light, run 1, well b: higher = more light from the viral control promoter (cell number, transfection, viability); uninduced reporter light, run 1, well a: higher = more light from the Notch target reporter without active Notch
Active means: 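Wells with low control signal or poorly matching duplicates excluded; duplicates averaged; per source plate, z beyond ±2 for induced/control log2 ratio or beyond ±1.8 for induced/uninduced marks a hit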
Calls: active = modifier hit (raised or lowered Notch signal); inactive = not a hit
The deposit covers about 22,000 reagents; this is an unselected part of those with a known target gene and a result. Of all reagents, 403 (1.9%) are marked active. 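Unnormalised raw counts per well; ratio z-scores behind the hit calls and whether each hit raises or lowers signal are not deposited.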 A plus sign joins genes that one reagent is predicted to hit. No sequences are given here. The record does not give: the amount of reagent.

With knock-down of sncRNA:430e + His2A:CG33859 + His2A:CG33817 + 37 more [DRSC21264] the results were induced reporter light, run 1, well a = 92665; induced reporter light, run 1, well b = 1.08e5; control promoter light, run 1, well a = 1.03e5; control promoter light, run 1, well b = 1.16e5; uninduced reporter light, run 1, well a = 9345; inactive.
CG11714 (GeneID 3772566) [DRSC09857] scored induced reporter light, run 1, well a = 97075; induced reporter light, run 1, well b = 99265; control promoter light, run 1, well a = 89120; control promoter light, run 1, well b = 28395; uninduced reporter light, run 1, well a = 8350; inactive.
Depletion of CG31274 + MESK4 [DRSC13202] resulted in: induced reporter light, run 1, well a = 1.17e5; induced reporter light, run 1, well b = 1.27e5; control promoter light, run 1, well a = 1.66e5; control promoter light, run 1, well b = 1.64e5; uninduced reporter light, run 1, well a = 10235; inactive.
Knock-down of sob (GeneID 33581) [DRSC00838] came out at: induced reporter light, run 1, well a = 64660; induced reporter light, run 1, well b = 57540; control promoter light, run 1, well a = 37665; control promoter light, run 1, well b = 44100; uninduced reporter light, run 1, well a = 7332; inactive.
With knock-down of CG4293 (GeneID 31001) [DRSC18557], the screen gave induced reporter light, run 1, well a = 1.43e5; induced reporter light, run 1, well b = 1.59e5; control promoter light, run 1, well a = 1.89e5; control promoter light, run 1, well b = 2.53e5; uninduced reporter light, run 1, well a = 11488; inactive.
For CG11382 (GeneID 31069) [DRSC18624], the entry reads induced reporter light, run 1, well a = 1.17e5; induced reporter light, run 1, well b = 1.15e5; control promoter light, run 1, well a = 2.02e5; control promoter light, run 1, well b = 2.42e5; uninduced reporter light, run 1, well a = 9520; inactive.
CG8838 (GeneID 33551) [DRSC00712] showed induced reporter light, run 1, well a = 1.80e5; induced reporter light, run 1, well b = 1.69e5; control promoter light, run 1, well a = 1.71e5; control promoter light, run 1, well b = 1.84e5; uninduced reporter light, run 1, well a = 14145; inactive.
CG44837 (GeneID 5740513) [DRSC10133] scored induced reporter light, run 1, well a = 51080; induced reporter light, run 1, well b = 45455; control promoter light, run 1, well a = 93920; control promoter light, run 1, well b = 78420; uninduced reporter light, run 1, well a = 4595; inactive.
CG44837 (GeneID 5740513) [DRSC10558] showed induced reporter light, run 1, well a = 1.56e5; induced reporter light, run 1, well b = 1.18e5; control promoter light, run 1, well a = 1.52e5; control promoter light, run 1, well b = 1.40e5; uninduced reporter light, run 1, well a = 9425; inactive.
Against CG4592 (GeneID 34317) [DRSC02761], the entry reads induced reporter light, run 1, well a = 2.28e5; induced reporter light, run 1, well b = 2.07e5; control promoter light, run 1, well a = 1.67e5; control promoter light, run 1, well b = 1.39e5; uninduced reporter light, run 1, well a = 16400; inactive.
For EbpIII (GeneID 49821) [DRSC04638], the entry reads induced reporter light, run 1, well a = 1.79e5; induced reporter light, run 1, well b = 1.96e5; control promoter light, run 1, well a = 2.14e5; control promoter light, run 1, well b = 2.10e5; uninduced reporter light, run 1, well a = 15338; inactive.
Ttc30 (GeneID 34702) [DRSC01300] gave induced reporter light, run 1, well a = 1.08e5; induced reporter light, run 1, well b = 81150; control promoter light, run 1, well a = 1.43e5; control promoter light, run 1, well b = 1.24e5; uninduced reporter light, run 1, well a = 8160; inactive.
Silencing of Ttc30 (GeneID 34702) [DRSC02818] came out at: induced reporter light, run 1, well a = 1.48e5; induced reporter light, run 1, well b = 1.54e5; control promoter light, run 1, well a = 1.51e5; control promoter light, run 1, well b = 1.44e5; uninduced reporter light, run 1, well a = 12020; inactive.
For CG5265 (GeneID 42074) [DRSC15756], the values are induced reporter light, run 1, well a = 2.47e5; induced reporter light, run 1, well b = 2.37e5; control promoter light, run 1, well a = 2.83e5; control promoter light, run 1, well b = 2.88e5; uninduced reporter light, run 1, well a = 17540; inactive.
With knock-down of Nelf-E (GeneID 38982) [DRSC10567], the screen gave induced reporter light, run 1, well a = 1.43e5; induced reporter light, run 1, well b = 1.31e5; control promoter light, run 1, well a = 1.37e5; control promoter light, run 1, well b = 1.21e5; uninduced reporter light, run 1, well a = 8805; inactive.
Against Obp47b + CG7741 [DRSC06330], the entry reads induced reporter light, run 1, well a = 76060; induced reporter light, run 1, well b = 85745; control promoter light, run 1, well a = 88805; control promoter light, run 1, well b = 96340; uninduced reporter light, run 1, well a = 8695; inactive.
CG9302 (GeneID 34750) [DRSC03191] showed induced reporter light, run 1, well a = 2.27e5; induced reporter light, run 1, well b = 2.31e5; control promoter light, run 1, well a = 3.56e5; control promoter light, run 1, well b = 3.89e5; uninduced reporter light, run 1, well a = 14130; inactive.
For Rab1 (GeneID 42524) [DRSC16808], the entry reads induced reporter light, run 1, well a = 60280; induced reporter light, run 1, well b = 48905; control promoter light, run 1, well a = 85070; control promoter light, run 1, well b = 78725; uninduced reporter light, run 1, well a = 3645; inactive.
Against CSN3 (GeneID 40308) [DRSC11859] the deposit lists induced reporter light, run 1, well a = 57405; induced reporter light, run 1, well b = 42625; control promoter light, run 1, well a = 27320; control promoter light, run 1, well b = 21038; uninduced reporter light, run 1, well a = 6438; inactive.
For Kap3 (GeneID 32071) [DRSC19426] the deposit lists induced reporter light, run 1, well a = 2.07e5; induced reporter light, run 1, well b = 1.67e5; control promoter light, run 1, well a = 2.54e5; control promoter light, run 1, well b = 2.06e5; uninduced reporter light, run 1, well a = 13595; inactive.
Silencing of CG2202 (GeneID 32014) [DRSC19841] came out at: induced reporter light, run 1, well a = 2.21e5; induced reporter light, run 1, well b = 2.07e5; control promoter light, run 1, well a = 2.51e5; control promoter light, run 1, well b = 2.69e5; uninduced reporter light, run 1, well a = 14505; inactive.
With knock-down of Tcs3 (GeneID 39811) [DRSC10461] the results were induced reporter light, run 1, well a = 2.02e5; induced reporter light, run 1, well b = 1.90e5; control promoter light, run 1, well a = 2.28e5; control promoter light, run 1, well b = 1.61e5; uninduced reporter light, run 1, well a = 8725; inactive.
After knock-down of CG7778 (GeneID 34147) [DRSC03067], the record shows induced reporter light, run 1, well a = 1.87e5; induced reporter light, run 1, well b = 2.32e5; control promoter light, run 1, well a = 1.58e5; control promoter light, run 1, well b = 1.97e5; uninduced reporter light, run 1, well a = 15432; inactive.
CG9008 (GeneID 34779) [DRSC01889] scored induced reporter light, run 1, well a = 1.91e5; induced reporter light, run 1, well b = 2.64e5; control promoter light, run 1, well a = 1.87e5; control promoter light, run 1, well b = 2.14e5; uninduced reporter light, run 1, well a = 15988; inactive.

Looked up above.
Result for CG9302 (GeneID 34750) [DRSC03191] in “control promoter light, run 1, well a”: 3.56e5
CG4293 (GeneID 31001) [DRSC18557], induced reporter light, run 1, well b → 1.59e5
For “uninduced reporter light, run 1, well a”, Rab1 (GeneID 42524) [DRSC16808] has 3645
